PMC7693506
These are yes or no findings as the source states them, for the method shown. In cells and extracts the contact can be indirect. Some results given as binding are weak or reduced against the parent protein; the word gives no strength. Blank lines part the entries; values can stand above or below the molecule they belong to.

Amino acid sequences for entries named in this document (tags omitted).
UniProt Q9H7S9: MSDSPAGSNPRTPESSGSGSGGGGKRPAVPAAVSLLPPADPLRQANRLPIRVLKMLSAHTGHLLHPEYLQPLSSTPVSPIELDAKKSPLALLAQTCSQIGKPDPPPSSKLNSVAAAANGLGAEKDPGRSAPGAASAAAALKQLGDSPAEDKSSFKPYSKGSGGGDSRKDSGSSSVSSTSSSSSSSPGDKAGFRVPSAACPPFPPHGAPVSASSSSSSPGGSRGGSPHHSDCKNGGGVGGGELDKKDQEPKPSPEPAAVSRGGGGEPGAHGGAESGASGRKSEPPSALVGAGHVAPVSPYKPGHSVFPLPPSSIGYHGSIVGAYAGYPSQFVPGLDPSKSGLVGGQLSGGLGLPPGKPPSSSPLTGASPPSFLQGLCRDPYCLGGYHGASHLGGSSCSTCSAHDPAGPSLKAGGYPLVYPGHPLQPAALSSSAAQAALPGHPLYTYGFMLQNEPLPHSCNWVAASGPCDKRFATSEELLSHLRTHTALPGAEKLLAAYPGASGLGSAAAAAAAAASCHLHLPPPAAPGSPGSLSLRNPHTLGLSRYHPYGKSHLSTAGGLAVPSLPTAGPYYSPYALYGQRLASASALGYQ

Legend:
[1] = target: T1, HE4 (human (endogenous in CAOV3 and OVCAR3)) (UniProt Q14508); assay: co-IP; 2 ug anti-HE4 antibody (ab200828), anti-ZNF703 antibody or rabbit IgG added to 500 ug protein lysate of CAOV3 or OVCAR3 cells, 4 °C overnight; protein A/G PLUS-Agarose beads 6 h; western blot; both directions
T1 sequence: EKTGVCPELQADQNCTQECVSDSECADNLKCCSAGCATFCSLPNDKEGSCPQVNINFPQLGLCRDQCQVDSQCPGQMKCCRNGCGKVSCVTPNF

[2] = target: zinc finger protein 703 (human (endogenous in CAOV3 and OVCAR3)) (UniProt Q9H7S9); assay: as above

binding [1]: binds
Molecule: zinc finger protein 703 (from UniProt Q9H7S9 1-590)

binding [2]: binds
B1: HE4 (protein, UniProt Q14508 31-124)
chain: T1 sequence
